# Reference: paper PMC11190991, “Encapsulation of Transketolase into In Vitro-Assembled Protein Nanocompartments Improves Thermal Stability” (ACS Applied Bio Materials, 2024)
# No constants are given. Whether binding was seen depends on the method and setting.
# B1: E. coli transketolase without cargo loading peptide (enzyme, UniProt P27302 1-663)
# chain: MSSRKELANAIRALSMDAVQKAKSGHPGAPMGMADIAEVLWRDFLKHNPQNPSWADRDRFVLSNGHGSMLIYSLLHLTGYDLPMEELKNFRQLHSKTPGHPEVGYTAGVETTTGPLGQGIANAVGMAIAEKTLAAQFNRPGHDIVDHYTYAFMGDGCMMEGISHEVCSLAGTLKLGKLIAFYDDNGISIDGHVEGWFTDDTAMRFEAYGWHVIRDIDGHDAASIKRAVEEARAVTDKPSLLMCKTIIGFGSPNKAGTHDSHGAPLGDAEIALTREQLGWKYAPFEIPSEIYAQWDAKEAGQAKESAWNEKFAAYAKAYPQEAAEFTRRMKGEMPSDFDAKAKEFIAKLQANPAKIASRKASQNAIEAFGPLLPEFLGGSADLAPSNLTLWSGSKAINEDAAGNYIHYGVREFGMTAIANGISLHGGFLPYTSTFLMFVEYARNAVRMAALMKQRQVMVYTHDSIGLGEDGPTHQPVEQVASLRVTPNMSTWRPCDQVESAVAWKYGVERQDGPTALILSRQNLAQQERTEEQLANIARGGYVLKDCAGQPELIFIATGSEVELAVAAYEKLTAEGVKARVVSMPSTDAFDKQDAAYRESVLPKAVTARVAVEAGIADYWYKYVGLNGAIVGMTTFGESAPAELLFEEFGFTVDNVVAKAKELL
# Legend:
# [1] = target: Myxococcus xanthus encapsulin (T = 1 and T = 3 capsid shells) (Myxococcus xanthus) (UniProt Q1D6H4); assay: native gel or EMSA; BN-PAGE of samples disassembled in denaturant: 6 M GuHCl, 8 M urea (20 mM Tris-Cl pH 7.5), 0.15 M HCl pH 1.0 or 0.15 M NaOH pH 13.0; both purified
# [2] = target: Myxococcus xanthus encapsulin (T = 1 and T = 3 capsid shells) (Myxococcus xanthus) (UniProt Q1D6H4); assay: condition: only after disassembly in 6 M GuHCl and 10-fold dilution in reassembly buffer; native gel or EMSA; BN-PAGE of Mx_encap after disassembly in 6 M GuHCl or 0.15 M NaOH pH 13.0 and 10-fold dilution in reassembly buffer; both purified
# [3] = target: Thermotoga maritima encapsulin (T = 1 capsid shell) (Thermotoga maritima) (UniProt Q9WZP2); assay: SEC; in vitro loading during reassembly (10 μM encapsulin monomer, cargo at stated molar ratio), SEC on Superose 6 to remove non-encapsulated cargo, co-eluted cargo seen by SDS-PAGE and quantified by densitometry against standard curves; both purified
Molecule,binding [1],binding [2],binding [3]
Myxococcus xanthus encapsulin (T = 1 and T = 3 capsid shells) (from UniProt Q1D6H4 1-287),no binding (condition: in 8 M urea),no binding,–
B1,–,–,no binding (tested: 1:1 ratio of TK to capsid monomer)
